No constants are given. Whether binding was seen depends on the method and setting. Binding seen in cells or lysates may run through a third protein. Some entries that bind do so weakly or less than the wild type.
What was measured:
flag-tagged ATR [1] = biological target: flag-tagged ATR (UniProt Q13535); assay: co-immunoprecipitation (summary of FIGS. 8a to 8c)
flag-tagged ATR [2] = biological target: flag-tagged ATR (UniProt Q13535); assay: co-immunoprecipitation from transfected 293 cells with an anti-FLAG antibody, Western blot with an anti-AIM3 antibody

Sequences of proteins named here, by UniProt entry; tags and fusion partners are left off.
UniProt Q13535: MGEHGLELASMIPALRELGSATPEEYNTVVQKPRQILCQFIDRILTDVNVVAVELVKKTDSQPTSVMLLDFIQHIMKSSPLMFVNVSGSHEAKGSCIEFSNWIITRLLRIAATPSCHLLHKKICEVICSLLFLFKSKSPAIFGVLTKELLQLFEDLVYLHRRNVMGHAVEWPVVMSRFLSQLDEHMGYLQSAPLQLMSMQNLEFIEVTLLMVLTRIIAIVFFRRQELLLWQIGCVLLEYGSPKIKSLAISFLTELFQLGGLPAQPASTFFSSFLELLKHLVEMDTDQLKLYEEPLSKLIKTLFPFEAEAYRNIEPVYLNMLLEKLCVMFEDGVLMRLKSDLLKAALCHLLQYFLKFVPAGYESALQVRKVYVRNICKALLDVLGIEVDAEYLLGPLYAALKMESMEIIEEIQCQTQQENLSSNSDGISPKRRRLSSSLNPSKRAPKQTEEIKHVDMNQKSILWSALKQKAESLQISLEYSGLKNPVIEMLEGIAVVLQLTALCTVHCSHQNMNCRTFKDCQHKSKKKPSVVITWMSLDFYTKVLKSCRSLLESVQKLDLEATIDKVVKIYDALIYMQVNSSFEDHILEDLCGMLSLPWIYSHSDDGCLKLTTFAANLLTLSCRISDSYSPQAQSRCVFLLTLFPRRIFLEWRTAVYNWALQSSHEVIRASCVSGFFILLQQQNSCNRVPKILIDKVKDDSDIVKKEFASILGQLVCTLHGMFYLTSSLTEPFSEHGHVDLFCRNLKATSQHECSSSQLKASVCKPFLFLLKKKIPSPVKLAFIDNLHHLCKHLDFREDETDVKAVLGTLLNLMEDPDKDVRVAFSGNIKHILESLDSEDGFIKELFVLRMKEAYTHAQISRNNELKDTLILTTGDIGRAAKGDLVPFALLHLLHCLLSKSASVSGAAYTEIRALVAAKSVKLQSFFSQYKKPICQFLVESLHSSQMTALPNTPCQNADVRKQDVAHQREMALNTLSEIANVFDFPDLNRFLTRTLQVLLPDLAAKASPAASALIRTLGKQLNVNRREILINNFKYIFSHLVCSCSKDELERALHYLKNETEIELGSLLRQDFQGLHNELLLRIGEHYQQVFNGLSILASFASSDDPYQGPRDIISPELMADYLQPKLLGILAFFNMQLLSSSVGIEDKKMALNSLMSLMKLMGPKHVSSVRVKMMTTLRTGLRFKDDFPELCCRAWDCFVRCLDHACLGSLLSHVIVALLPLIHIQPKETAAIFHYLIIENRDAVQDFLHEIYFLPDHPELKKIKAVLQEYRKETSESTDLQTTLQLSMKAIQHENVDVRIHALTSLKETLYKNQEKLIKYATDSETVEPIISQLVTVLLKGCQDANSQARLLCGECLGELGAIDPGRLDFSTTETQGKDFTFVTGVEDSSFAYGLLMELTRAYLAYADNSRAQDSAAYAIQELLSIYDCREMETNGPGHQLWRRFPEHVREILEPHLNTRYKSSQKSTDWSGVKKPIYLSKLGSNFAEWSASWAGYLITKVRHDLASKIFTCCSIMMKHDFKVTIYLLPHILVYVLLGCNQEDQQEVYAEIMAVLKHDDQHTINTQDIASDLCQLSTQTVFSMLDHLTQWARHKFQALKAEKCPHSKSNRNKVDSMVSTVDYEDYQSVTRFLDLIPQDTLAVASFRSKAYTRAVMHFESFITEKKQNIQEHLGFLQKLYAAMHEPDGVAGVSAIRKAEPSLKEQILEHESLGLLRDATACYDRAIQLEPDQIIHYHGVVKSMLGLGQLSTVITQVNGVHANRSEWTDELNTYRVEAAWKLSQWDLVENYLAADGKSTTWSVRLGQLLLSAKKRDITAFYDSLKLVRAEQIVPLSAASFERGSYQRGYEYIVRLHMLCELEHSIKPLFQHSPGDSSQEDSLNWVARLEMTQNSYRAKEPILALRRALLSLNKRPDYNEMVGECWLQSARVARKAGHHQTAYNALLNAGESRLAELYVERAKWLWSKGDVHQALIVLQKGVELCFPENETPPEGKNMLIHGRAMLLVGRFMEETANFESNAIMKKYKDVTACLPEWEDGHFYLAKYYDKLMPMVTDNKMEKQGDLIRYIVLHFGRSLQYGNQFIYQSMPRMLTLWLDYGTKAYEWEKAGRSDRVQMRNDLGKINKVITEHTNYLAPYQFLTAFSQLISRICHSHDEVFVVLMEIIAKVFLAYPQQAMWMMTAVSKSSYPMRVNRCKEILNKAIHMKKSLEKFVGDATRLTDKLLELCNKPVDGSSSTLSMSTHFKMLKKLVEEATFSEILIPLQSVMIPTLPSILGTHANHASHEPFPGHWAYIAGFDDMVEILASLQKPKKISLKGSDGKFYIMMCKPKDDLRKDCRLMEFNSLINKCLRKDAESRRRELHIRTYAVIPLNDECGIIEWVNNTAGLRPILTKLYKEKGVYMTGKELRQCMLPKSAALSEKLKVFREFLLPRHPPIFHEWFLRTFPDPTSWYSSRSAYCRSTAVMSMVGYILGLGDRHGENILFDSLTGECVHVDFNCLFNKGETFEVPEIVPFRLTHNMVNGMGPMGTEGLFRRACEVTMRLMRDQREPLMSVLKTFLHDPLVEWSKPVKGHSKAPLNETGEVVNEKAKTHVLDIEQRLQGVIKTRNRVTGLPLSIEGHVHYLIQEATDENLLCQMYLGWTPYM

B1: AIM3 (ARS-interacting multifunctional protein 3) (protein)
chain: AAAAELSLLEKSLGLSKGNKYSAQGERQIPVLQTNNGPSLTGLTTIAAHLVKQANKEYLLGSTAEEKAIVQQWLEYRVTQVDGHSSKNDIHTLLKDLNSYLEDKVYLTGYNFTLADILLYYGLHRFIVDLTVQEKEKYLNVSRWFCHIQHYPGIRQHLSSVVFIKNRLYTNSH
B1 was tested, and the binding (flag-tagged ATR [1]) was “binds” and the binding (flag-tagged ATR [2]) was “binds”.

— patent publication US20060046250A1 (SEOUL NATIONAL UNIVERSITY INDUSTRY FOUNDATION, published 2006)
